This is one part of the list. Repeats are few or missing, and single values can be far off.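 The assay uses a mixed pool of 41 HAP1 clones in which 61 cancer-associated proteins bear intron-inserted fluorescent tags, and clones are distinguished by image pattern. Results are compared against DMSO-treated control wells, and the BRD4 degrader dBET6 is the positive control.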
What was measured:
[1] = target: XPO1 (intron 15 mScarlet tag, HAP1) (UniProt O14980); test: XPO1 fluorescence intensity change vs DMSO (log2 fold change); higher = more XPO1 protein; settings: 6 h
[2] = target: BRD4 (intron 10 mScarlet tag, HAP1) (UniProt O60885); test: BRD4 median nuclear fluorescence intensity change vs DMSO (log2 fold change); higher = more BRD4 protein; settings: 6 h

Protein sequences, listed by entry. Tags and fused reporters are not part of them.
UniProt O14980, whole entry: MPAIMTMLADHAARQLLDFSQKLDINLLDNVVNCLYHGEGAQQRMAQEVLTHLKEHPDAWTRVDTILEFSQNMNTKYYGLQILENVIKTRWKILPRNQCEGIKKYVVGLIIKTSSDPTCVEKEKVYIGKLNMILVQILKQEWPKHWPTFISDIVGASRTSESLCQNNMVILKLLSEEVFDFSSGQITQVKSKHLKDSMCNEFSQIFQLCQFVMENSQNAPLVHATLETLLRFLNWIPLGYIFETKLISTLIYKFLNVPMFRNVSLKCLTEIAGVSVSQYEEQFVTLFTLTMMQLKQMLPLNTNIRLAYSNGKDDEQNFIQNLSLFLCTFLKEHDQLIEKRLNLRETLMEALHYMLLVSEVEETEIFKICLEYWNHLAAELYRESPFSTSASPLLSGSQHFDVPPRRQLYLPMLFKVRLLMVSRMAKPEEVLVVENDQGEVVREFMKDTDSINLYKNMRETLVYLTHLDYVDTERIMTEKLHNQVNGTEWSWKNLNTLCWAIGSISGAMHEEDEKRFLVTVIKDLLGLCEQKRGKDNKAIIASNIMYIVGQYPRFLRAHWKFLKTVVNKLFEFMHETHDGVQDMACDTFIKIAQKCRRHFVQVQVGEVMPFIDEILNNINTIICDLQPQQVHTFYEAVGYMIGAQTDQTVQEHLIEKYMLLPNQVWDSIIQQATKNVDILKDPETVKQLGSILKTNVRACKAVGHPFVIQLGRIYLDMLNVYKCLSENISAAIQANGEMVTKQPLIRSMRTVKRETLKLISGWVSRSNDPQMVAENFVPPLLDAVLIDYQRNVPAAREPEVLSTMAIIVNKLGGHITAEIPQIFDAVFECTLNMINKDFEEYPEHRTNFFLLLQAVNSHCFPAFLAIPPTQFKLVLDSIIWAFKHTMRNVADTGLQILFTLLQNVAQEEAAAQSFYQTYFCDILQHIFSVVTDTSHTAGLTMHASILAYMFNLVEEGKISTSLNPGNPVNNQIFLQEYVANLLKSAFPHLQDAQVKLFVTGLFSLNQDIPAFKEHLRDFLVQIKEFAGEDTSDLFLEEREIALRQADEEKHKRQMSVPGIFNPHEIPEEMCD

SMILES | XPO1 fluorescence intensity change (log2) [1] | BRD4 median nuclear fluorescence intensity change (log2) [2]
CCOC(=O)c1ccnc(CNCC(=O)N(CC)CCN(C)C)c1 (20 µM) | -0.133 | 0.0758
CCOC(=O)C1=C(CCl)NC(=O)NC1c1cccs1 (centres undefined) (10 µM) | -0.51 | 0.0115
Brc1cccc(N2CCC(CNc3ncnc4ncccc34)C2)c1 (centres undefined) (10 µM) | 0.0756 | 0.0425
Cc1cc(NC(=O)NCc2ccc(Oc3ccc(F)cc3)cc2)no1 (10 µM) | 0.0583 | 0.0238
Cc1nnc(CN(C)c2nc3c(s2)CC(c2ccccc2)CC3)o1 (centres undefined) (10 µM) | 0.074 | 0.0602
Cc1cc(C)c(C#N)c(NCc2ccc(Cn3ccnc3)cc2)n1 (1 µM) | -0.0149 | -0.165
Cc1ccc(C)c(Nc2cc(C)nc(-c3ccccc3O)n2)c1 (10 µM) | -0.0601 | 0.0968
CCOc1c(Cl)cc(C(=O)Nc2cccc3cn[nH]c23)cc1OC (10 µM) | -0.0509 | -0.0108
Cc1ccccc1Nc1nc(N)nc(CN(C)Cc2c(F)cccc2Cl)n1 (10 µM) | -0.0316 | 0.0199
CCCCOc1ccc(-c2nnc(CCl)o2)cc1 (10 µM) | 0.0889 | 0.0432
O=C(CCN1CCSC1=O)NCc1nccc2ccccc12 (10 µM) | 0.0611 | 0.03
CN(CCCc1cc(-c2ccccc2)no1)C(=O)Nc1ccncc1 (1 µM) | 0.0176 | 0.0573
COc1ccc(-c2nc(-c3ccc(O)c(O)c3)cs2)cc1 (10 µM) | 0.0283 | 0.0966
CNc1ncc2cc(-c3cc(NC(=O)NCCC(C)(C)C)c(F)cc3C)c(C)nc2n1 (4.99874 µM) | 0.00431 | 0.0709
Cc1nc(C)c(C(=O)NC(C)c2ccc(-c3ccccc3)cc2)s1 (centres undefined) (10 µM) | 0.0701 | 0.0412
CCOc1cc(/C=C/C(=O)c2ccc(O)c(CCCl)c2)cc(Br)c1OC (10 µM) | -0.46 | -0.105
CCCn1c(CCl)nc2cc(S(=O)(=O)N3CCOCC3)ccc21 (10 µM) | 0.0146 | 0.0948
Nc1nc(CCl)nc(Nc2ccc(F)cc2)n1 (10 µM) | 0.237 | 0.132
COc1ccc(C2=Nn3c(nnc3-c3ccc(OC)cc3OC)SC2C)cc1 (centres undefined) (0.1 µM) | -0.0248 | 0.096
O=C(NCc1cccnc1)c1ccc(/C=C/c2ccc3ccccc3n2)cc1 (10 µM) | 0.00928 | -0.0566
O=C(Nc1cc2c(cc1Cl)OCCCO2)c1cccnc1N1CCCCC1 (10 µM) | 0.115 | 0.0599
O=C(Nc1ccc(Cl)cc1)Nc1nc(-c2cccc3ccccc23)cs1 (10 µM) | 0.0594 | 0.14

SMILES | XPO1 fluorescence intensity change (log2) [1] | BRD4 median nuclear fluorescence intensity change (log2) [2]
COc1ccc(NC(=O)c2ccc(CCl)cc2)cc1 (0.1 µM) | -0.114 | -0.0273
COc1ccc(-c2nc3ccccc3n2C(=O)c2ccccc2C(=O)O)cc1 (1 µM) | 0.14 | -0.0516
Cc1ccc(C(Nc2ncnc3sccc23)c2cccs2)cc1 (centres undefined) (10 µM) | -0.116 | 0.00744
O=C(NCC1CN(Cc2ccccc2)CCO1)Nc1ccc(F)cc1 (centres undefined) (10 µM) | -0.0924 | 0.0734
O=C(Nc1cccnc1)c1ccc(Br)s1 (10 µM) | -0.104 | -0.0289
Clc1ccc2[nH]c3c(c2c1)CN(c1ncccn1)CC3 (10 µM) | -0.151 | 0.0571
O=C(COC(=O)c1ccc(-c2ccc(O)cc2)cc1)NCc1ccc(F)cc1 (1 µM) | -0.0819 | -0.0787
c1ccc(-c2ccccc2OCc2ccc(-c3nnc4n3CCC4)cc2)cc1 (10 µM) | -0.0226 | 0.00121
CC1CC2(C)Oc3ccccc3CC2C(C)C1CNCCCN(C)C (centres undefined) (10 µM) | -0.116 | 0.0447
Cc1nc(-c2cccs2)sc1C(=O)N1c2ccccc2CC1C (centres undefined) (10 µM) | 0.0288 | 0.098
COCc1c(C(=O)Nc2ncnn2C)sc2ccccc12 (10 µM) | 0.0879 | -0.0332
Cn1c(=O)c2c(ncn2Cc2ccc(-c3ccccc3C#N)cc2)n(C)c1=O (10 µM) | 0.034 | 0.0387
N#CC(C#N)=C1C=CC=CN1/C(=C/c1ccccc1Cl)C(=O)c1cccs1 (0.1 µM) | 0.0972 | 0.219
CN1CC(=O)Nc2cc(Cl)ccc21 (10 µM) | -0.12 | 0.0211
O=C(NCC#Cc1cccc(C(F)(F)F)c1)c1cccc(Nc2ncccn2)c1 (10 µM) | -0.124 | 0.163
CCn1c(NC(=O)C(c2ccccc2)c2ccccc2)nc2ccccc21 (10 µM) | -0.177 | 0.0034
CCOC(=O)N1CCN(C(=O)c2cc(-c3ccncc3)nc3ccccc23)CC1 (10 µM) | 0.0765 | 0.118
Cc1ccc(-c2nnc(Sc3ncnc4sccc34)o2)cc1 (10 µM) | 0.0181 | 0.0501
COc1ccc(CC(=O)NCc2ccc(C(=O)N3CCCCC3)cc2)cc1 (10 µM) | 0.152 | 0.0816
CCOC(=O)c1c(-c2ccccc2)oc2ccc(NS(=O)(=O)c3ccc(C)cc3)cc12 (10 µM) | 0.0513 | 0.0592
Cc1cn2cc(NC(=O)COCc3ccccc3Cl)ccc2n1 (10 µM) | 0.245 | 0.0545
Cc1nn(Cc2ccccc2)c(C)c1CNC(=O)CN(C)c1c(C)noc1C (10 µM) | 0.265 | 0.0549

SMILES | XPO1 fluorescence intensity change (log2) [1] | BRD4 median nuclear fluorescence intensity change (log2) [2]
COc1ccc(/C=C/C(=O)c2ccc(O)c(CCCl)c2)cc1O (10 µM) | -0.724 | -0.0421
CCCc1cc(=O)n2nc(Br)sc2n1 (10 µM) | -0.239 | -0.0286
N#Cc1ccc(N2CCN(Cc3ccc(-c4ccccc4Cl)s3)CC2)nc1 (10 µM) | 0.0278 | 0.0697
CNS(=O)(=O)c1ccc(C(=O)Nc2cc(CCc3ccccc3)ccn2)cc1 (10 µM) | -0.13 | 0.00794
CCOC(=O)C1=C(CCl)NC(=O)NC1c1ccco1 (centres undefined) (10 µM) | 0.00325 | 0.0345
Clc1ccc(-c2csc3ncnc(Sc4nnnn4CC4CCCO4)c23)cc1 (centres undefined) (10 µM) | 0.0273 | -0.0997
CCOc1ccc(NC(=O)Nc2ccccc2F)cc1 (1 µM) | 0.183 | 0.0149
O=[N+]([O-])c1ccc(O)c2ncccc12 (10 µM) | -0.0768 | -0.048
O=C(Nc1nc(-c2ccccn2)cs1)c1ccc(OC(F)F)cc1 (10 µM) | -0.0596 | 0.118
Cc1ccc(C(=O)C2CCN(c3ncnc4ccsc34)CC2)cc1 (10 µM) | 0.0672 | 0.0371
O=C(/C=C/c1cn(Cc2ccccc2)nc1-c1cccnc1)c1ccc(O)c(CCCl)c1 (10 µM) | -0.0359 | 0.0378
O=C(NCCc1c(F)cccc1F)c1cc2c(nc3sccn32)s1 (1 µM) | -0.184 | -0.0176
COc1ccc2c(c1)CNC(c1ccccc1)C2 (centres undefined) (10 µM) | -0.108 | -0.022
CCn1c(SC(C)C(=O)Nc2cc(C)no2)nc2ccccc21 (centres undefined) (10 µM) | 0.121 | 0.117
O=C1CN(C(=O)c2cc(Cl)sc2Cl)c2ccccc2N1 (10 µM) | 0.00628 | 0.0611
Cc1ccccc1Cc1cnc(NC(=O)c2ccc(C(N)=O)cn2)s1 (10 µM) | 0.143 | -0.0146
CCCn1nc(C(=O)Nc2nc(-c3ccccn3)cs2)ccc1=O (10 µM) | -0.131 | 0.0229
COC(=O)c1ccc(C)c(NC(=O)CCNC(=O)Nc2ccccc2)c1 (10 µM) | 0.0245 | -0.0124
CC(C)(C)c1cnc(CSc2cnc(NC(=O)C3CCNCC3)s2)o1 (20 µM) | 0.264 | -0.0119
COC(=O)c1ccccc1NS(=O)(=O)c1ccc(OC)cc1 (10 µM) | -0.0482 | -0.059
Cc1occc1C(=O)NCc1ccc(Oc2ccc(F)cc2)cc1 (10 µM) | -0.231 | 0.0942
Cc1cccc(N2CCN(C(=O)c3cccc(C#N)c3)CC2)c1 (10 µM) | -0.00731 | 0.0963

Full records as entered above:
`N#Cc1ccc(N2CCN(Cc3ccc(-c4ccccc4Cl)s3)CC2)nc1` (10 µM) reads XPO1 fluorescence intensity change (log2) [1]: 0.0278; BRD4 median nuclear fluorescence intensity change (log2) [2]: 0.0697
`N#CC(C#N)=C1C=CC=CN1/C(=C/c1ccccc1Cl)C(=O)c1cccs1` (0.1 µM) reads XPO1 fluorescence intensity change (log2) [1]: 0.0972; BRD4 median nuclear fluorescence intensity change (log2) [2]: 0.219

Next structures.

SMILES | XPO1 fluorescence intensity change (log2) [1] | BRD4 median nuclear fluorescence intensity change (log2) [2]
CN(CC(=O)NCc1ccco1)C(=O)c1ccc(COc2ccccc2)o1 (10 µM) | -0.0863 | -0.0313
O=C(CCCl)NC(=O)Nc1ccc2c(c1)OCO2 (10 µM) | 0.0745 | 0.0184
COc1ccc(-c2nc(N(Cc3ccccc3)C(=O)CSc3nc(C)cc(=O)[nH]3)sc2C)cc1 (10 µM) | -0.302 | 0.0452
COc1ccsc1C(=O)Nc1nc(-c2ccccc2)c(-c2nccn2C)s1 (10 µM) | -0.103 | 0.145
COCc1cc(C(=O)NCc2ccc(-c3ccc(O)cc3)cc2)no1 (10 µM) | 0.0382 | 0.173
COC(=O)Nc1ccc(NC(=O)C2(C)CCCc3ccccc32)cc1 (centres undefined) (10 µM) | -0.0208 | 0.0269
O=C(Nc1ccncc1)c1ccc(SC(F)(F)F)cc1 (1 µM) | 0.0453 | 0.00107
COc1ccccc1-c1cc(C(=O)NCCc2ccccc2)no1 (10 µM) | 0.056 | 0.0386
CN(C)c1cccc(C(=O)c2cccc(N(C)C)c2)c1 (10 µM) | -0.108 | 0.0623
N#CC(C#N)=C1C=CC=CN1/C(=C/c1ccc(Cl)cc1)C(=O)c1cccs1 (10 µM) | -0.00391 | 0.0267
Cc1cc2cc(NC(=O)c3ccc(OCc4c(C)noc4C)cc3)ccc2[nH]1 (10 µM) | -0.0255 | 0.169
CC(C)(Oc1ccc(Cl)cc1)C(=O)Nc1nc(-c2ccccn2)cs1 (10 µM) | 0.0415 | -0.00947
CCc1cc(NC(=O)Cc2nc(-c3ccsc3)oc2C)n[nH]1 (1 µM) | -0.365 | -0.00355
N#CC1=C(N)Oc2cc(N)ccc2C1C1CCCCC1 (centres undefined) (10 µM) | 0.075 | 0.105
COc1cc2c(cc1OC)C(c1cccs1)N(C(=O)Nc1ccccc1)CC2 (centres undefined) (10 µM) | -0.184 | -0.0483
COc1ccc(C(C)=O)cc1COC(=O)c1c(C)noc1C(C)C (10 µM) | -0.16 | 0.00329
COC(=O)C1=C(C)NC(C)=C(C#N)C1c1cccs1 (centres undefined) (10 µM) | 0.104 | 0.0149
O=C(NCC(c1cccs1)N1CCOCC1)c1ccsc1 (centres undefined) (10 µM) | -0.0213 | -0.0141
Cc1ccc(C(=O)N(CC(=O)Nc2ccccc2Br)Cc2ccco2)cc1 (10 µM) | 0.0652 | -0.0141
COC(=O)c1cccc(C#Cc2cccc(NC(=O)c3ccc(C)nc3)c2)c1 (10 µM) | -0.106 | -0.118
COc1ccc2cc(C(C)c3nc4ccccc4n3C(C)C)ccc2c1 (centres undefined) (0.1 µM) | 0.176 | 0.122

For convenience, part of the list above:
SMILES | XPO1 fluorescence intensity change (log2) [1] | BRD4 median nuclear fluorescence intensity change (log2) [2]
CN(C)c1cccc(C(=O)c2cccc(N(C)C)c2)c1 (10 µM) | -0.108 | 0.0623
N#CC(C#N)=C1C=CC=CN1/C(=C/c1ccc(Cl)cc1)C(=O)c1cccs1 (10 µM) | -0.00391 | 0.0267

Reference: the supplement of paper PMC11098740
